# Construct, isoform or probe ends are uncertain for at least one entry. At least one verdict was read from the data and is not stated in words by the source. Where a protein sequence is shown, tags need not be part of it.
# Target: T1, DrSSB (Deinococcus radiodurans) (UniProt Q9RY51)
# T1 sequence (looked up, limits assumed): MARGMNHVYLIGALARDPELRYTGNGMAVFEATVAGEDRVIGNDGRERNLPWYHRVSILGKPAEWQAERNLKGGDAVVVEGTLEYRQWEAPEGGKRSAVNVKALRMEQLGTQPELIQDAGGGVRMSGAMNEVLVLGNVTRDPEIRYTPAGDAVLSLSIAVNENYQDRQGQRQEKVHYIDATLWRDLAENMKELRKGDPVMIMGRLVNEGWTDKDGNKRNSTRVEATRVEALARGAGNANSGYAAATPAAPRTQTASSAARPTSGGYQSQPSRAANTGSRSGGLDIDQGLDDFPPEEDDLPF
# Assay: BLI
# Details: 1 mM ATP, BLI: 50 mM Hepes pH 7.0, 150 mM NaCl, 0.1% Tween, temperature not stated, recombinant protein, protein details: N-terminal 6His
Sequence,binding result (label: 5' biotin on strand 1),"binding result (label: 5' biotin, single-stranded DNA)"
AAGCGTGGTGAAACCTACCTCTGATTCGAAACCTTCACTTTACGTGGTCTGGCGTGGTGAATGTTCGTCGGCGTGCTCGA / CCAGGAATACGGCAAGTTGGAGGCCGGGCTGGATGGAGACTAAGCTTTGGAAGTGAAGGTTTCGAATCAGAGGTAGGTTTCACCACGC [foDNA oso23/oso18],binds,–
AAGCGTGGTGAAACCTACCTCTGATTCGAAACCTTCACTTTACGTGGTCTGGCGTGGTGAATGTTCGTCGGCGTGCTCGA [ssDNA oso23],–,binds

# Reference: paper PMC9865707, “Structural Insights of the DciA Helicase Loader in Its Relationship with DNA”
